Measurements as given in PubChem BioAssay AID2551 (National Center for Advancing Translational Sciences (NCATS), 2010).
Screen size: about 310,000 compounds; about 17,000 (5.5%) were called active. Inconclusive means that the source gave no clear call. Such entries were picked first, then a sample of the others. Calls come from the whole dose curve; as a rule, active = well fitted inhibition curve with a large enough effect; inconclusive = small, poorly fitted or top-dose-only effect, or effect the other way; inactive = no such curve, though single readings can be large or run the other way. A potency beside an inconclusive call is a rough fit, not a confirmed value.

Amino acid sequences for entries named in this document (tags omitted). A change or cut given only in a name is not applied to a line headed by its entry.
UniProt P51450: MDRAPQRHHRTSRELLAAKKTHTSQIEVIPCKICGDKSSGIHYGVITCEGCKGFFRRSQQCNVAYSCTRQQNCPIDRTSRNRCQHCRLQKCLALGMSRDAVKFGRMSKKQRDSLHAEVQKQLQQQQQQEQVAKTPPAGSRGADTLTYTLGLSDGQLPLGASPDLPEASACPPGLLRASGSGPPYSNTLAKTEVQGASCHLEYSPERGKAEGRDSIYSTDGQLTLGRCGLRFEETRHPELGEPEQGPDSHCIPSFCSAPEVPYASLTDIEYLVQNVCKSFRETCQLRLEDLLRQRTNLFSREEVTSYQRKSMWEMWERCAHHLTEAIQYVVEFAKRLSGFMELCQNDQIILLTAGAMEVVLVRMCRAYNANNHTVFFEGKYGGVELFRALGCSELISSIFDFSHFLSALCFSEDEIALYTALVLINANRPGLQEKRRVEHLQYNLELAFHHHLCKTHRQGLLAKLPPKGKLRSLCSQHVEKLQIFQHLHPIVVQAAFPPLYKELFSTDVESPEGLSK

Target: Nuclear receptor ROR-gamma (Mus musculus) (UniProt P51450)
Assay: qHTS for inhibitors of ROR gamma transcriptional activity; note: nearly all actives have a fitted effect of over 60% in size
Settings: Drosophila S2 Gal4-RORgamma UAS-luciferase reporter, 20 h; activity change, negative = inhibition: at 53.6 µM (top of the series)
In short: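 ROR gamma transcriptional activity was tracked as Gal4-UAS luciferase output in stably transfected Drosophila Schneider cells, with compound added 1 hr before 700 uM copper sulfate induction and a 20 hr ambient-temperature incubation.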
% is set by controls: 0 for no effect and ±100 for the full control effect; potency is the fitted concentration of half-maximal effect.

Compound	Potency	activity change, negative = inhibition
CC(=O)Nc1ccc(C(O)(C(F)(F)F)C(F)(F)F)cc1	inconclusive: 12.6 µM [activator, partial curve]	
CCCN(CCC)Cc1c(C(=O)N/N=C/c2ccco2)nnn1-c1nonc1N	inconclusive: 22.4 µM [inhibitor, single point]	
N/C(=N\N=C/c1ccc(F)cc1)N/N=C\c1ccc(F)cc1	inconclusive: 1.78 µM [inhibitor, partial curve, poor fit]	
CCOC(=O)c1c(C(C#N)C#N)cc(C)nc1C		inactive: -1.43% [at 10 µM]
CCOC(=O)CSc1nnc2n(Cc3ccccc3)c(=O)c3c4c(sc3n12)CCC4	inconclusive: 0.355 µM [inhibitor, partial curve, poor fit]	
CCOC(=O)c1ccc(NC(=O)C2(c3ccc(Cl)cc3)CCCC2)cc1	inconclusive: 17.8 µM [activator, single point]	
CCn1c(N2CCN(S(=O)(=O)c3ccc(OC)cc3)CC2)nc2ccccc21	inconclusive: 17.8 µM [activator, single point]	
O=c1c(S(=O)(=O)c2ccc(Cl)cc2)cn(Cc2ccccc2)c2ccc(F)cc12	inconclusive: 8.91 µM [activator, partial curve]	
Cc1ccccc1N=C1Nc2ccccc2CS1	inconclusive: 14.1 µM [inhibitor, single point]	
Cc1ccsc1/C=N/NC(=O)c1cccnc1	inconclusive: 25.1 µM [inhibitor, single point]	
CSc1ccccc1NS(=O)(=O)c1ccc2c(c1)OCCO2		inactive: -14.9% [at 0.365 µM]
Cc1ccccc1C(=O)NC(CC(C)C)C(=O)OCc1cc(=O)n2cc(Br)ccc2n1 (stereo not drawn)	inconclusive: 2.51 µM [activator, full curve, poor fit]	
CCSc1nc(C2CC2)cc(-c2cccs2)c1C#N		inactive: 21.3%
Cc1ccc(OCCN2CCN(c3ncnc4sc(C)c(C)c34)CC2)cc1	active: 8.91 µM	
Cc1cc(NC(=O)CCC(=O)N(c2cccc(F)c2)C(C(=O)NC2CCCC2)c2ccc(C)o2)no1 (stereo not drawn)	inconclusive: 15.8 µM [activator, single point]	
CC(C)n1cc(/C=N\NC(=O)c2cc3c(ccc4ccccc43)o2)c2ccccc21	inconclusive: 2.82 µM [inhibitor, partial curve, poor fit]	
CC(C)c1ccccc1NC(=S)N1CCN(S(=O)(=O)c2cccs2)CC1	inconclusive: 35.5 µM [inhibitor, single point]	
CN1CCN(c2ncc3nc(CCc4ccccc4)c(=O)n(C4CC4)c3n2)CC1	inconclusive: 20 µM [inhibitor, single point]	
COc1ccc(N2C(=O)c3ccccc3NC2c2ccc(OC)c(Cn3cc([N+](=O)[O-])cn3)c2)cc1 (stereo not drawn)	inconclusive: 6.31 µM [activator, single point]	
COc1ccc(C(=O)/C(Br)=C/C(=O)O)cc1	inconclusive: 4.47 µM [activator, single point]	
O=C(NCc1cccs1)C1CC(c2ccc(F)cc2)=NO1 (stereo not drawn)		inactive: 13.4%
O=C(Nc1ccc(Cl)cc1)Nc1ccccn1		inactive: 36.5%
Cc1cccc(Oc2cc(NC(=O)c3ccccc3)cc([N+](=O)[O-])c2)c1	inconclusive: 25.1 µM [inhibitor, single point]	

Compound	Potency	activity change, negative = inhibition
CCOC(=O)c1c(NC(=O)C2C3C=CC(C3)C2C(=O)O)sc2c1CCC(CC)C2 (stereo not drawn)	inconclusive: 0.562 µM [activator, full curve, poor fit]	
Cc1ccc(OCC(=O)Nc2cc(C(C)(C)C)on2)cc1C	inconclusive: 12.6 µM [inhibitor, single point]	
Cc1cccc(C(CC(=O)N2CCCCC2)c2ccccc2)c1O (stereo not drawn)		inactive: 5.2%
CCS(=O)(=O)c1ncc(Cl)c(C(=O)Nc2ccc(S(=O)(=O)N3CCCC(C)C3)cc2)n1 (stereo not drawn)	inconclusive: 5.62 µM [inhibitor, single point]	
O=C(CNc1cccc2ccccc12)N/N=C/c1ccc[nH]1	active: 5.01 µM	
CCn1c(C(O)c2ccc(C)cc2)nc2ccccc21 (stereo not drawn)	inconclusive: 11.2 µM [inhibitor, partial curve, poor fit]	
O=C(N/N=C1\CCCc2ccccc21)c1ccc([N+](=O)[O-])cc1	inconclusive: 15.8 µM [inhibitor, single point]	
O=C(N/N=C/c1cc(Cl)ccc1O)c1ccncc1	active: 3.16 µM	
Cc1ccc(NC(=S)NCCc2ccc(S(N)(=O)=O)cc2)cc1C	inconclusive: 35.5 µM [activator, single point]	
CCCOc1ccc(/C(O)=C2/C(=O)C(=O)N(CCN(C)C)C2c2ccc(OC)c(OC)c2)cc1 (stereo not drawn)	inconclusive: 11.2 µM [activator, partial curve, poor fit]	
O=C(Nc1cccnc1)C1CCC(CNS(=O)(=O)c2cccc3nsnc23)CC1 (stereo not drawn)	inconclusive: 14.1 µM [activator, single point]	
CN(C)CCCNCC(=O)c1c(-c2ccccc2)n(C)c2ccccc12		inactive: -3.83%
CCC1(C)Cc2c(sc3nc(SCC(=O)O)[nH]c(=O)c23)CO1 (stereo not drawn)	inconclusive: 6.31 µM [activator, single point]	
COc1ccc(Br)cc1/C=N/NC(=O)C[n+]1ccccc1		inactive: 0.705%
CN(C(=O)c1cc2n(n1)C(C(F)(F)F)CC(c1ccco1)N2)c1ccc(OC(F)(F)F)cc1 (stereo not drawn)	inconclusive: 35.5 µM [inhibitor, single point]	
CSCC[C@H](NC(=O)[C@@H]1Cc2ccccc2CN1)C(=O)NC1CCCCC1		inactive: 13.7%
COc1ccc2[nH]c3c(N4CCc5ccccc5C4)ncnc3c2c1	inconclusive: 35.5 µM [inhibitor, single point]	
CCCCc1ccc(S(=O)(=O)N2CCC3(CC2)OCCO3)cc1	inconclusive: 12.6 µM [activator, single point]	
CCOc1cc(/C=N/n2cnnc2)c(Br)cc1O	active: 7.08 µM	
COc1cccc(/C=C2/SC(=S)N(CCC(=O)N3CCOCC3)C2=O)c1	inconclusive: 20 µM [inhibitor, single point]	
C=CCN(C(=O)CC(NC(C)=O)c1ccccc1)c1nc(-c2ccc(S(C)(=O)=O)cc2)cs1 (stereo not drawn)	inconclusive: 35.5 µM [activator, single point]	
Cc1cc(Sc2ncnc(N)c2[N+](=O)[O-])ncn1	active: 3.55 µM	
Cc1ccc(C)c([N+](=O)[O-])c1		inactive: 7.24%

5 of the compounds above, bar-delimited:
Compound | Potency | activity change, negative = inhibition
CCCCc1ccc(S(=O)(=O)N2CCC3(CC2)OCCO3)cc1 | inconclusive: 12.6 µM [activator, single point] | 
CCOc1cc(/C=N/n2cnnc2)c(Br)cc1O | active: 7.08 µM | 
COc1cccc(/C=C2/SC(=S)N(CCC(=O)N3CCOCC3)C2=O)c1 | inconclusive: 20 µM [inhibitor, single point] | 
C=CCN(C(=O)CC(NC(C)=O)c1ccccc1)c1nc(-c2ccc(S(C)(=O)=O)cc2)cs1 (stereo not drawn) | inconclusive: 35.5 µM [activator, single point] | 
Cc1cc(Sc2ncnc(N)c2[N+](=O)[O-])ncn1 | active: 3.55 µM | 

The listing continues:

Compound	Potency	activity change, negative = inhibition
O=C(CSc1cccc[n+]1[O-])Nc1cc2c(cc1Cl)C(=O)c1ccccc1C2=O	inconclusive: 20 µM [inhibitor, single point]	
COc1ccc(S(=O)(=O)N(C)c2ccc(C(=O)N3CCCC3)cc2)cc1	inconclusive: 11.2 µM [activator, partial curve]	
CCCCc1ccc(NC(=S)NCCN2CCOCC2)cc1	active: 10 µM	
CC1(c2nnc(-c3ccc(Cl)cc3)o2)CC(c2ccc(Cl)cc2)=NO1 (stereo not drawn)		inactive: -2.19%
Cc1ccc(NC(=S)N(CCN(C)C)Cc2cc3cccc(C)c3[nH]c2=O)cc1		inactive: -31.9%
COc1cc(CNc2ccc(N3CCN(C(C)=O)CC3)cc2)ccc1OCc1ccc(F)cc1	inconclusive: 8.91 µM [activator, partial curve]	
O=C(O)c1ccc(NC2=C(Cl)C(=O)c3ccccc3C2=O)cc1	inconclusive: 7.08 µM [inhibitor, partial curve]	
CSc1cc(-c2ccc(Cl)cc2)c(C(=O)N2CCCC2)s1	inconclusive: 1.41 µM [inhibitor, partial curve]	
O=C(Nc1cccc(S(=O)(=O)Nc2ccc(Cl)cc2)c1)c1cc2c(s1)CCCC2	inconclusive: 15.8 µM [inhibitor, single point]	
CN1CCN(c2ncc3nc(-c4ccc(F)cc4)c(=O)n(C4CC4)c3n2)CC1		inactive: -24.1%
O=[N+]([O-])c1cc(Cl)c2cccnc2c1O	active: 2.82 µM	
O=C(Nc1ccc(Br)cc1Br)c1cccc2c1C(=O)N(C1CCCCC1)C2		inactive: 0.916%
Clc1ccccc1-c1nc(-c2cccnc2)no1	inconclusive: 15.8 µM [inhibitor, single point]	
NS(=O)(=O)c1ccc(-c2ccc(/C=N/NC(=O)c3ccc([N+](=O)[O-])cc3)o2)cc1	inconclusive: 17.8 µM [inhibitor, partial curve, poor fit]	
CC(C)(C)C(=O)c1sc2nc(-c3cccs3)cc(C(F)(F)F)c2c1N	active: 10 µM	
CCOC(=O)c1c(C)oc2c(F)c(F)c(F)c(F)c2c1=O	inconclusive: 1.12 µM [inhibitor, partial curve]	
Cc1cccc(-c2nsc(SCC(=O)Nc3nccs3)n2)c1	active: 11.2 µM	
O=C(Nc1ccc(S(=O)(=O)Nc2ccc(F)cc2)cc1)c1ccc(CN2CCOCC2)cc1	inconclusive: 4.47 µM [activator, single point]	
CC(=O)OCC1O[C@@H](O[C@@H]2C[C@H]3C(C)(C)[C@H](OC(C)=O)CC[C@]3(C)[C@H]3CC[C@]45C[C@]4(CC[C@H]5[C@@H](C)C[C@@H](O)[C@H](O)C(C)(C)O)[C@@]32C)[C@H](O)[C@@H](O)[C@@H]1O (stereo partly drawn)	active: 0.891 µM	
O=C(CCNS(=O)(=O)c1ccc2[nH]c(=O)oc2c1)Nc1cccc(Br)c1		inactive: 4.05%
CCc1cccc2c(C(=O)CSc3nncn3-c3ccc(OC)cc3)c[nH]c12	inconclusive: 10 µM [activator, single point]	
CCCCC1C2=C(CC(C)(C)CC2=O)OC2=C1C(=O)CC(C)(C)C2	inconclusive: 12.6 µM [activator, partial curve]	
